Some of the results follow. Further columns of the screen follow, without active or inactive calls. The list favours compounds with an active or inconclusive main result. Words in brackets tell the shape of the fitted curve; partial curves, single points and poor fits give uncertain potencies.
Experiment: qHTS Assay for Modulators of Lamin A Splicing
Settings: HeLa LMNA splicing GFP/RFP minigene ratio, 48 h
Outline: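 S3 HeLa cells stably expressing lamin A-EGFP splicing minigene plus DsRed2, 600 cells/well, 48 h compound exposure at 37C. Laser-scanning cytometry; analysed as GFP (500-530 nm)/RFP (575-640 nm) total intensity ratio; 0.5% DMSO vehicle.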

[1] = measured here: RFP viability control channel
[2] = measured here: GFP splicing reporter channel

With `COc1ccccc1-c1nc(C#N)c(N2CCc3ccccc3C2)o1` the AC50 [1] was 35.5 µM [rising, single point].
With `COc1ccc(C(=O)NC2(C(F)(F)F)NC(=O)N(CCCc3ccccc3)C2=O)cc1OC` (centres undefined) the AC50 [1] was 12.6 µM [rising, partial curve].
With `N#C/C(=N\Nc1cccc(Cl)c1)C(=O)c1ccccc1` the AC50 [1] was 11.2 µM [rising, partial curve].
For `COc1ccc(OCC(=O)Nn2c(-c3ccc(C)cc3)nc3ccccc3c2=O)cc1`, the AC50 [1] was 22.4 µM [rising, single point].
For `Brc1ccc(C2=Nn3c(nnc3-c3n[nH]c4c3CCC4)SC2)cc1`, the AC50 [1] was 0.562 µM [rising, full curve].
In the case of `COC(=O)c1cnc(N2CCCN(S(=O)(=O)c3ccc(C(F)(F)F)cc3)CC2)nc1C(F)(F)F`, the AC50 [2] is reported as 0.447 µM [rising, full curve].
In the case of `CCC(C)c1ccccc1NC(=O)C(C)N(C)Cc1cccc(OC)c1` (centres undefined), the AC50 [2] is reported as 0.00501 µM [falling, full curve] and the AC50 [1] is reported as 0.794 µM [falling, full curve, poor fit].
In the case of `Cc1cc(S(=O)(=O)Nc2ccccc2C(=O)O)ccc1Cl`, the AC50 [1] is reported as 0.0178 µM [falling, full curve, poor fit].
With `Cc1cc(NC(=O)CN2C(=O)CC(c3ccco3)Sc3ccccc32)no1` (centres undefined) the AC50 [1] was 20 µM [rising, single point].
With `COc1ccc(NC(=S)NC(NC(=O)c2cccc3ccccc23)C(Cl)(Cl)Cl)c([N+](=O)[O-])c1` (centres undefined) the AC50 [1] was 14.1 µM [rising, single point].
With `O=C(CCCCCn1c(=O)[nH]c2ccsc2c1=O)N1CCCCC1` the AC50 [1] was 35.5 µM [rising, single point].
In the case of `Cc1ccccc1NC1=C/C(=N\S(=O)(=O)c2cccs2)c2ccccc2C1=O`, the AC50 [2] is reported as 3.55 µM [falling, full curve] and the AC50 [1] is reported as 3.16 µM [falling, full curve].
In the case of `CC(C)Cn1c(CN(Cc2ccccc2)Cc2ccccc2)nc2c1c(=O)n(C)c(=O)n2C`, the AC50 [1] is reported as 35.5 µM [rising, partial curve, poor fit].
With `Cc1ccc2nc(NC(=O)CSc3ncc(C(=O)Nc4ccccc4)c(=O)n3C)sc2c1` the AC50 [2] was 0.0562 µM [falling, partial curve, poor fit] and the AC50 [1] was 20 µM [falling, partial curve, poor fit].
In the case of `CCOc1ccccc1N(CC)C(=O)c1cc2ccc3cccnc3c2[nH]1`, the AC50 [2] is reported as 11.2 µM [falling, single point].
With `Cc1ccc(C(=O)n2nc(-n3cccc3)c3c(C)cc(C)nc32)cc1` the AC50 [1] was 0.0355 µM [falling, full curve, poor fit].
With `COc1cc(Cl)ccc1NC(=S)N(CCCN1CCOCC1)Cc1cn(C)c2ccccc12` the AC50 [2] was 17.8 µM [rising, single point] and the AC50 [1] was 14.1 µM [rising, partial curve].
For `Cc1cccc(-n2ncc3c(NCc4cccs4)ncnc32)c1`, the AC50 [2] was 22.4 µM [rising, single point] and the AC50 [1] was 20 µM [rising, partial curve].
With `O=C(Nc1ccccc1F)c1ccc(CSc2ccccc2)o1` the AC50 [2] was 14.1 µM [rising, partial curve, poor fit] and the AC50 [1] was 17.8 µM [rising, partial curve, poor fit].
With `Cc1nc(-c2cccc(F)c2)sc1CCNC(=O)C(=O)Nc1ccc2c(c1)OCO2` the AC50 [2] was 25.1 µM [falling, single point] and the AC50 [1] was 25.1 µM [falling, single point].
For `O=C(N=Nc1c(O)n(Cc2ccccc2)c2ccccc12)c1ccc(O)cc1`, the AC50 [1] was 12.6 µM [rising, partial curve, poor fit].
For `Cc1cc(C2(c3ccc(O)c(C)c3)OC(=O)c3ccccc32)ccc1O`, the AC50 [1] was 35.5 µM [rising, single point].
For `Cc1cccc(N2CCN(c3ncnc4onc(C)c34)CC2C)c1` (centres undefined), the AC50 [1] was 12.6 µM [rising, partial curve].
With `CCc1cccc(C)c1NC(=O)c1cn2c3c(ccc(Cl)c3c1=O)OC(C)C2` (centres undefined) the AC50 [2] was 0.794 µM [falling, full curve, poor fit] and the AC50 [1] was 0.891 µM [falling, full curve, poor fit].
For `CCCCOc1ccc(C(O)(CCC)CCN2CCOCC2)cc1` (centres undefined), the AC50 [2] was 8.91 µM [rising, partial curve] and the AC50 [1] was 12.6 µM [rising, partial curve].
With `CN1CCN(c2ncnc3ccc(-c4ccoc4)cc23)CC1` the AC50 [2] was 3.98 µM [falling, partial curve, poor fit].
In the case of `O=C(NCCN1CCOCC1)c1ccc([N+](=O)[O-])cc1[N+](=O)[O-]`, the AC50 [2] is reported as 0.447 µM [falling, partial curve] and the AC50 [1] is reported as 0.794 µM [falling, partial curve].
In the case of `CCN1CCN(c2cc3c(cc2F)c(=O)c(S(=O)(=O)c2cc(C)cc(C)c2)cn3CC)CC1`, the AC50 [2] is reported as 0.794 µM [falling, full curve, poor fit].
With `O=[N+]([O-])c1cc(-n2cccc2)ccc1N1CCOCC1` the AC50 [2] was 10 µM [rising, partial curve] and the AC50 [1] was 0.0631 µM [rising, full curve, poor fit].
For `CN(C)c1ccc(-c2nnn(Cc3ccccc3Br)n2)cc1`, the AC50 [2] was 17.8 µM [rising, single point] and the AC50 [1] was 22.4 µM [rising, single point].
In the case of `CCOc1ccc(-c2nonc2NC(=O)COc2ccccc2)cc1`, the AC50 [2] is reported as 0.0562 µM [rising, full curve, poor fit].
In the case of `CC1C/C(=C\c2cccnc2)C(=O)/C(=C/c2cccnc2)C1` (centres undefined), the AC50 [2] is reported as 0.631 µM [falling, partial curve] and the AC50 [1] is reported as 6.31 µM [falling, single point].
With `COc1ccc(NC(=O)Cn2nnc(C(=O)Nc3ccc(C)c(F)c3)c2N)cc1Cl` the AC50 [1] was 5.62 µM [rising, single point].
In the case of `Cc1ccc(S(=O)(=O)n2nc(OC(=O)c3c(-c4ccccc4Cl)noc3C)cc2N)cc1`, the AC50 [1] is reported as 12.6 µM [rising, single point].
With `FC(F)(F)c1nnc2c(Sc3ccccn3)nc3ccccc3n12` the AC50 [2] was 5.62 µM [falling, full curve] and the AC50 [1] was 11.2 µM [falling, partial curve].
For `C=CCN1C(=Nc2ccccc2)SC/C1=C\C(=O)OC`, the AC50 [2] was 35.5 µM [rising, single point].
With `O=c1[nH]cc(C(F)(F)F)cc1NS(=O)(=O)c1ccc([N+](=O)[O-])cc1` the AC50 [2] was 0.501 µM [rising, full curve, poor fit].
In the case of `NS(=O)(=O)c1cc(C(=O)O)cc(N2CCCC2)c1Oc1ccccc1`, the AC50 [2] is reported as 0.158 µM [falling, single point] and the AC50 [1] is reported as 0.00398 µM [falling, full curve, poor fit].
In the case of `CCOc1ccc(Nc2nc(Cc3nnc(SCC(=O)c4ccc(C)c(C)c4)o3)cs2)cc1`, the AC50 [1] is reported as 12.6 µM [rising, partial curve].
With `C[C@H]1Cc2c(-c3ccccc3)nc3c(c2CO1)CN(S(=O)(=O)c1ccc(Cl)c2nonc12)CC3` the AC50 [2] was 6.31 µM [falling, single point] and the AC50 [1] was 3.98 µM [falling, partial curve, poor fit].
For `COc1cccc(NS(=O)(=O)c2ccc(OC)c(OC)c2)c1`, the AC50 [1] was 15.8 µM [rising, single point].
In the case of `O=C(Nc1ccc(N2CCN(C(=O)c3ccc(Cl)cc3)CC2)cc1)c1cc2ccccc2o1`, the AC50 [2] is reported as 5.01 µM [rising, full curve].
For `Cn1c(SCC(=O)c2ccccc2)nnc1-c1ccncc1`, the AC50 [2] was 35.5 µM [falling, single point].
For `CCOC(=O)c1ccc2c(c1)N(CC(=O)Nc1ccc(CC)cc1)C(=O)c1ccccc1S2`, the AC50 [2] was 14.1 µM [falling, partial curve] and the AC50 [1] was 12.6 µM [falling, single point].
With `Cc1cc(N/N=C/c2cccc(Cl)c2)nc(NCc2ccccc2)n1` the AC50 [1] was 12.6 µM [rising, partial curve].
In the case of `CN(C)CCCN1c2ccccc2Sc2ccccc21`, the AC50 [2] is reported as 0.02 µM [falling, full curve, poor fit] and the AC50 [1] is reported as 35.5 µM [rising, single point].
For `CCN(Cc1ccccc1)c1ccc(N=Nc2nn(C)c(C)c2[N+](=O)[O-])cc1`, the AC50 [2] was 20 µM [rising, single point] and the AC50 [1] was 28.2 µM [rising, single point].
For `CN(CCCNC(=O)c1cn(C)c2ccc(S(=O)(=O)N(C)C)cc2c1=O)c1ccccc1`, the AC50 [1] was 35.5 µM [rising, single point].
In the case of `COc1ccc(-c2nnc3sc(COc4ccccc4)nn23)cc1`, the AC50 [1] is reported as 35.5 µM [rising, single point].
In the case of `CCOC(=O)c1c(C)c(C)n(Cc2cccc(OC)c2OC)c1C`, the AC50 [1] is reported as 28.2 µM [rising, single point].
In the case of `O=C(CSc1cn(CCNC(=O)c2cccs2)c2ccccc12)NC1CCCC1`, the AC50 [1] is reported as 35.5 µM [rising, single point].
With `COc1ccc(C(=O)CC(Nc2ccc([N+](=O)[O-])cc2)c2ccc(Cl)cc2)cc1` (centres undefined) the AC50 [1] was 12.6 µM [rising, single point].
With `O=C(COc1cccc(Cl)c1)Nc1nc(-c2ccc(S(=O)(=O)N3CCOCC3)cc2)cs1` the AC50 [2] was 35.5 µM [rising, single point] and the AC50 [1] was 22.4 µM [rising, partial curve, poor fit].
With `COc1ccc2ccccc2c1/C=N/NC(=S)Nc1cc(S(=O)(=O)N2CCOCC2)ccc1N1CCOCC1` the AC50 [1] was 14.1 µM [rising, partial curve, poor fit].
